Values of other authors in US20130089629A1, “KIT FOR THE TREATMENT OF ONYCHOMYCOSIS BY NITRIC OXIDE” (TOPICAL PHARMA AB, priority 2010, published 2013).
Some of these results come from one statement about several compounds together.

System: infected toenails
Details: systemic (oral) treatment, 10-18 months; cited from earlier work

SMILES: CC(=O)N1CCN(c2ccc(OCC3COC(Cn4ccnc4)(c4ccc(Cl)cc4Cl)O3)cc2)CC1 (stereo not shown) [ketoconazole]
- relapse rates: 50-85%
